Reference: patent US7097987
No constants are given. Whether binding was seen depends on the method and setting. Some entries that bind do so weakly or less than the wild type.

What was measured:
[1] = target: T1, human CD81 (TAPA-1) (human) (UniProt P60033); experiment: flow cytometry competition on B cells, % inhibition of mean fluorescence intensity
T1 sequence: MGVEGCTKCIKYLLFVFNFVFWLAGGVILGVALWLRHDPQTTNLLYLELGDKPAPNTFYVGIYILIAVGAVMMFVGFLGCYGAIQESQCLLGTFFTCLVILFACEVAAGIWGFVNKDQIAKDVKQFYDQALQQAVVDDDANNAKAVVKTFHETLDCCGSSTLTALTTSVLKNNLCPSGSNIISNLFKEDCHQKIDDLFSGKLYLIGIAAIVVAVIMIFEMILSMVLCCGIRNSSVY

[2] = target: T1, human CD81 (TAPA-1) (human); experiment: immunohistochemical staining of fresh lymphocytes and hepatocytes
[3] = target: T1, human CD81 (TAPA-1) (human); experiment: flow cytometry on WOP cells transfected with cDNA clone P3; E2-CHO detected with 291A2 and PE-conjugated anti-mouse Ig
[4] = target: T1, human CD81 (TAPA-1) (human); experiment: WOP transfectants; insert of clone P3 sequenced and found identical to human CD81
[5] = target: T1, human CD81 (TAPA-1) (human); experiment: flow cytometry competition on EBV-B cells; competitor of JS-81 staining
[6] = target: T1, human CD81 (TAPA-1) (human); experiment: Far Western blot with 1 µg/ml recombinant E2 on A2A6 membrane proteins immunoprecipitated with JS81; detected with 291A2

Measured: binding

recombinant HCV E2 envelope protein produced in CHO cells (E2-CHO) (from UniProt P26664 384-715) (ligand)
binds: all assays above
